Data published in PubChem BioAssay AID590 (National Center for Advancing Translational Sciences (NCATS), 2007).
The campaign covered roughly 59,000 compounds. About 6,500 (11%) were called active. This list was built around the results that the source calls inconclusive (neither active nor inactive); the mix of calls is not that of the screen. Cut-off read from the data, not from the text of the source: active = max dye-equivalent concentration above about 10 nM; inconclusive = mostly about 1.1 nM to 9.6 nM; inactive = weaker than that.

Test: qHTS Assay for Spectroscopic Profiling in A350 Spectral Region
Settings: Compound autofluorescence, 340/450 nm, Alexa 350 dye-equivalents; active compounds read high

**Q.** Which max dye-equivalent concentration does the source give for `CCOC(=O)C1CCCN(C(=O)c2cnn3c(C(F)F)cc(-c4ccc(C)cc4)nc23)C1` (stereo not drawn) here?
**A.** active: 34 nM

**Q.** Which max dye-equivalent concentration does the source give for `COC(=O)c1oc2ccc(Br)cc2c1NC(=O)CCN1CCOCC1` here?
**A.** inconclusive: 1.7 nM

**Q.** For `CCOC(=O)CNc1nc(-c2ccncc2)nc2ccccc12`, which max dye-equivalent concentration is on record?
**A.** inconclusive: 7.3 nM

**Q.** Which max dye-equivalent concentration does the source give for `COc1cc(-c2nc(S(=O)(=O)c3ccc(C)cc3)c(N(C)C)o2)cc(OC)c1OC` here?
**A.** inactive

**Q.** For `C(=N\n1cnnc1)/c1cn(-c2cccs2)nc1-c1ccccc1`, which max dye-equivalent concentration is on record?
**A.** inconclusive: 8.5 nM

**Q.** Which max dye-equivalent concentration does the source give for `COc1cccc(C(c2nnnn2Cc2ccccc2)N2CCN(C3CCCC3)CC2)c1OC` (stereo not drawn) here?
**A.** inconclusive: 1.6 nM

**Q.** Which max dye-equivalent concentration does the source give for `CCC[C@@H]1O[C@@H]2C[C@@H]3[C@H]4CCC5=CC(=O)C=C[C@@]5(C)[C@H]4[C@H](O)C[C@@]3(C)[C@@]2(C(=O)CO)O1` here?
**A.** inactive

**Q.** With `O=C1CCCN1CCCNc1ncnc2c1[nH]c1ccccc12` as the molecule, how does the max dye-equivalent concentration read?
**A.** inconclusive: 7 nM

**Q.** For `O=C(NCC1CCCO1)NC1(C(F)(F)F)Oc2ccccc2O1` (stereo not drawn), which max dye-equivalent concentration is on record?
**A.** inconclusive: 9.2 nM

**Q.** For `Cc1cc(S(=O)(=O)N2CCC(NC(=O)C34CC5CC(CC(C5)C3)C4)CC2)ccc1-n1cnnn1`, which max dye-equivalent concentration is on record?
**A.** inconclusive: 1.8 nM

**Q.** With `Cc1cc(NC(=O)c2ccc(NC(=O)C(C)Oc3ccccc3)cc2)no1` (stereo not drawn) as the molecule, how does the max dye-equivalent concentration read?
**A.** inactive

**Q.** With `Cc1ccc(-c2nsc3c(N4CCN(C(=O)c5ccco5)CC4)ncnc23)cc1` as the molecule, how does the max dye-equivalent concentration read?
**A.** active: 21 nM

**Q.** For `COc1cccc(S(=O)(=O)Nc2ccc(C(=O)N3CCOCC3)cc2)c1`, which max dye-equivalent concentration is on record?
**A.** inactive

**Q.** With `O=C(CN1CCN(C(=O)c2cccs2)CC1)NC1CCCCC1` as the molecule, how does the max dye-equivalent concentration read?
**A.** inconclusive: 2.7 nM

**Q.** Which max dye-equivalent concentration does the source give for `Cc1ccc(S(=O)(=O)Cn2nnnc2CN2CCCC3(CCCCC3)C2)cc1` here?
**A.** inactive

**Q.** For `COc1ccc(C(=O)N2CCC3(CC2)CN(CC(C)C)C3)cc1`, which max dye-equivalent concentration is on record?
**A.** inactive

**Q.** Which max dye-equivalent concentration does the source give for `CC(C)OC(=O)CSc1nc2ncc(Cl)cc2[nH]1` here?
**A.** inconclusive: 3.6 nM

**Q.** Which max dye-equivalent concentration does the source give for `Cc1ccc(Nc2nc(N3CCOCC3)c3ccccc3n2)cc1` here?
**A.** active: 86 nM

**Q.** Which max dye-equivalent concentration does the source give for `CCCn1cnc2c(c1=O)c1nc3ccccc3nc1n2CCC1=CCCCC1` here?
**A.** active: 190 nM

**Q.** Which max dye-equivalent concentration does the source give for `CC(C)c1ccc2oc(=O)cc(CN3CCN(c4ccc(F)cc4)CC3)c2c1` here?
**A.** inconclusive: 1.1 nM

**Q.** With `O=C(NCc1ccc2c(c1)OCO2)c1c(F)c(F)c(F)c(F)c1F` as the molecule, how does the max dye-equivalent concentration read?
**A.** inactive

**Q.** Which max dye-equivalent concentration does the source give for `CCCC1(C(=O)OCC)NC(c2ccc(N(C)C)cc2)C2C(=O)N(c3ccccc3)C(=O)C21` (stereo not drawn) here?
**A.** inconclusive: 6.4 nM

**Q.** With `Cc1ccc(C(=O)CSc2nc3cc(S(=O)(=O)N4CCOCC4)ccc3o2)cc1` as the molecule, how does the max dye-equivalent concentration read?
**A.** inconclusive: 1.4 nM

**Q.** For `CCCCc1c(O)nc(SCC(=O)c2ccccc2)[nH]c1=O`, which max dye-equivalent concentration is on record?
**A.** inconclusive: 6.7 nM

**Q.** Which max dye-equivalent concentration does the source give for `c1cnc(N2CC[N+]3(CCCC3)CC2)nc1` here?
**A.** inconclusive: 2.7 nM

**Q.** For `COc1cccc(-c2cc(NCc3ccccc3)ncn2)c1`, which max dye-equivalent concentration is on record?
**A.** inactive

**Q.** With `Cc1cc(NC(=O)CSc2nc(CCC3CCCC3)nc3ccccc23)no1` as the molecule, how does the max dye-equivalent concentration read?
**A.** inconclusive: 2.9 nM

**Q.** With `C=CCOc1cccc(C2C(C(=O)c3ccc(C)o3)=C(O)C(=O)N2c2nccs2)c1` (stereo not drawn) as the molecule, how does the max dye-equivalent concentration read?
**A.** inconclusive: 2.1 nM

**Q.** For `COc1ccc(C2C(CC(=O)O)=C(O)C(=O)N2c2ccccc2)cc1` (stereo not drawn), which max dye-equivalent concentration is on record?
**A.** inconclusive: 1.2 nM

**Q.** For `O=C(N1CCOCC1)N1CCN(S(=O)(=O)N2CCOCC2)CC1`, which max dye-equivalent concentration is on record?
**A.** inactive

**Q.** Which max dye-equivalent concentration does the source give for `CCCCOc1ccc(C(=O)N2CCCC2C(=O)O)cc1` (stereo not drawn) here?
**A.** inactive

**Q.** For `O=c1c(-c2ccc(O)cc2)coc2cc(O)ccc12`, which max dye-equivalent concentration is on record?
**A.** active: 230 nM

**Q.** With `CCCc1cc(=O)oc2cc(C)c(CN3CCCC3)c(O)c12` as the molecule, how does the max dye-equivalent concentration read?
**A.** inconclusive: 1.2 nM

**Q.** With `CCn1nc(C(=O)OCC(=O)N2c3ccccc3CC2C)c2ccccc2c1=O` (stereo not drawn) as the molecule, how does the max dye-equivalent concentration read?
**A.** inconclusive: 1.6 nM

**Q.** With `CN(C)c1cc[n+](Cc2ccccc2)cc1` as the molecule, how does the max dye-equivalent concentration read?
**A.** inconclusive: 3.1 nM

**Q.** Which max dye-equivalent concentration does the source give for `CCn1c(=O)cc(SCC(=O)N2CCCCC2)c2ccccc21` here?
**A.** inconclusive: 1.7 nM

**Q.** Which max dye-equivalent concentration does the source give for `CCc1ccccc1Nc1ccc(C(=O)O)cc1N` here?
**A.** inconclusive: 8.1 nM

**Q.** With `Cn1cccc1C(=O)N1CCC2(CC1)CCN(c1ccncc1)CC2` as the molecule, how does the max dye-equivalent concentration read?
**A.** inactive

**Q.** Which max dye-equivalent concentration does the source give for `Cc1nc(N2CCN(S(=O)(=O)c3ccc(F)cc3)CC2)c2c(C)c(C)sc2n1` here?
**A.** inconclusive: 3.4 nM

**Q.** With `Cc1ccc(Cl)cc1N1CCN(S(=O)(=O)c2ccc3c(c2)OCCO3)CC1` as the molecule, how does the max dye-equivalent concentration read?
**A.** inactive

**Q.** For `CCn1c(CCCc2nc3c([nH]2)c(=O)n(C)c(=O)n3C)nc2c1c(=O)n(C)c(=O)n2C`, which max dye-equivalent concentration is on record?
**A.** inactive

**Q.** Which max dye-equivalent concentration does the source give for `CCCc1cc(=O)[nH]c(SCc2ccc(C#N)cc2)n1` here?
**A.** inactive

**Q.** Which max dye-equivalent concentration does the source give for `CCN1CCCC1CNC(=O)COc1cc(=O)n(C)c2ccccc12` (stereo not drawn) here?
**A.** inactive

**Q.** Which max dye-equivalent concentration does the source give for `CC1(C)Cc2ccccc2-c2nnc(-c3ccc(O)cc3)n21` here?
**A.** inactive

**Q.** With `COc1ccc2nc(-c3ccccc3)[nH]c2c1` as the molecule, how does the max dye-equivalent concentration read?
**A.** inconclusive: 3.8 nM

**Q.** For `CCOC(=O)C1CCN(CC(=O)Nc2c(C(=O)OC)[nH]c3cccc(Cl)c23)CC1`, which max dye-equivalent concentration is on record?
**A.** inactive

**Q.** With `O=S(=O)(CCn1cccc1)CCn1cccc1` as the molecule, how does the max dye-equivalent concentration read?
**A.** inactive

**Q.** Which max dye-equivalent concentration does the source give for `O=C1CCCN1CCCn1cnc2c([nH]c3ccc(F)cc32)c1=O` here?
**A.** inconclusive: 1.5 nM

**Q.** Which max dye-equivalent concentration does the source give for `Cc1cc(NC(=O)CCC(=O)N(c2ccc(F)cc2)C(C(=O)NC2CCCC2)c2ccncc2)no1` (stereo not drawn) here?
**A.** inconclusive: 1.2 nM

**Q.** With `Cc1cc(C(F)(F)F)c(C#N)c(SCC(=O)NC(C)(C)C)n1` as the molecule, how does the max dye-equivalent concentration read?
**A.** inactive

**Q.** For `O=C(CSc1nnc(Cc2cc(=O)[nH]c(=O)[nH]2)n1-c1ccccc1)N1CCCc2ccccc21`, which max dye-equivalent concentration is on record?
**A.** inconclusive: 3.4 nM

**Q.** Which max dye-equivalent concentration does the source give for `COC(=O)c1ccccc1NC(=O)C(CCS(C)(=O)=O)NC(C)=O` (stereo not drawn) here?
**A.** inactive

**Q.** For `CN1C(=O)OC(C)(C)C1=O`, which max dye-equivalent concentration is on record?
**A.** inconclusive: 3.1 nM

**Q.** With `O=C(CSc1ncccc1-c1nc2ccccc2[nH]1)NCc1ccco1` as the molecule, how does the max dye-equivalent concentration read?
**A.** active: 70 nM

**Q.** Which max dye-equivalent concentration does the source give for `CCOc1cccc(-c2nnc3sc(-c4cc(OC)c(OC)c(OC)c4)nn23)c1` here?
**A.** inactive

**Q.** Which max dye-equivalent concentration does the source give for `CCOC(=O)c1cc(-c2ccncc2)nc2c1c(C)nn2-c1ccccn1` here?
**A.** active: 32 nM

**Q.** With `COc1cccc2cc(C(=O)NCC3CCCO3)c(=O)oc12` (stereo not drawn) as the molecule, how does the max dye-equivalent concentration read?
**A.** inconclusive: 3.1 nM

**Q.** Which max dye-equivalent concentration does the source give for `COc1ccc(C(c2nnnn2Cc2ccccc2)N2CCN(c3nc4ccccc4s3)CC2)cc1` (stereo not drawn) here?
**A.** inactive
